From the supplement of paper PMC10331698
± gives the standard deviation of the averaged measurements. Most values lie at the level of the controls, where differences are scatter.

Tests used:
Experiment in all cases: level (log10 ratio to DMSO vehicle control); higher = higher biomarker level / cell amount than vehicle control
Perfluorooctanoic acid = compound: O=C(O)C(F)(F)C(F)(F)C(F)(F)C(F)(F)C(F)(F)C(F)(F)C(F)(F)F [Perfluorooctanoic acid]; settings: 2200 nM; in DMSO
Procedure: (§1)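 BioMAP Diversity Plus panel of 12 human primary cell co-culture systems (3C, 4H, LPS, SAg, BT, BF4T, BE3C, CASM3C, HDF3CGF, KF3CT, MyoF, Mphg). Compounds were added 1 h before stimulation and left for 24 h (MyoF 48 h; BT 72 h for soluble read-outs or 6 d for IgG). Biomarkers were read by ELISA, cytotoxicity by SRB, PBMC viability and proliferation by Alamar Blue. Each well value was divided by the mean of 8 DMSO control wells on the same plate and log10 transformed; duplicate blinded samples were tested at 4 concentrations.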

Perfluorodecanoic acid = compound: O=C(O)C(F)(F)C(F)(F)C(F)(F)C(F)(F)C(F)(F)C(F)(F)C(F)(F)C(F)(F)C(F)(F)F [Perfluorodecanoic acid]; settings: in DMSO
Procedure: as §1

[1] = compound: O=C(O)C(F)(F)C(F)(F)C(F)(F)C(F)(F)C(F)(F)C(F)(F)C(F)(F)F [Ammonium perfluorooctanoate]; settings: 2200 nM; in DMSO
Procedure: as §1

[2] = compound: OCC(F)(F)OC(F)(F)C(F)(F)OC(F)(F)C(F)(F)OC(F)(F)CO [1H,1H,11H,11H-Perfluorotetraethylene glycol]; settings: 2200 nM; in DMSO
Procedure: as §1

[3] = compound: O=C(O)C(F)(F)OC(F)(F)C(F)(F)OC(F)(F)F [Perfluoro-3,6-dioxaheptanoic acid]; settings: 2200 nM; in DMSO
Procedure: as §1

[4] = compound: C=CC(=O)OCC(F)(F)C(F)(F)C(F)(F)C(F)(F)C(F)(F)C(F)(F)C(F)(F)C(F)F [1H,1H,9H-Perfluorononyl acrylate]; settings: 2200 nM; in DMSO
Procedure: as §1

[5] = compound: CCOC(=O)CC(=O)C(F)(F)C(F)(F)F [Ethyl pentafluoropropionyl acetate]; settings: 2200 nM; in DMSO
Procedure: as §1

[6] = compound: O=C(CC(=O)C(F)(F)C(F)(F)C(F)(F)F)c1cccs1 [(Perfluorobutyryl)-2-thenoylmethane]; settings: 2200 nM; in DMSO
Procedure: as §1

Perfluorooctanamidine = compound: N=C(N)C(F)(F)C(F)(F)C(F)(F)C(F)(F)C(F)(F)C(F)(F)C(F)(F)F [Perfluorooctanamidine]; settings: in DMSO
Procedure: as §1

[7] = compound: O=C(O)CCC(F)(C(F)(F)F)C(F)(F)F [4,4-bis(Trifluoromethyl)-4-fluoropropanoic acid]; settings: 2200 nM; in DMSO
Procedure: as §1

[8] = compound: FC(F)(F)C(F)(F)C(F)(F)C(F)(F)C(F)(F)C(F)(F)C(F)(F)C(F)(F)CCS [2-(Perfluorooctyl)ethanthiol]; settings: in DMSO
Procedure: as §1

Perfluorononanoic acid = compound: O=C(O)C(F)(F)C(F)(F)C(F)(F)C(F)(F)C(F)(F)C(F)(F)C(F)(F)C(F)(F)F [Perfluorononanoic acid]; settings: 2200 nM; in DMSO
Procedure: as §1

[9] = compound: O=C(O)C(F)(F)OC(F)(F)C(F)(F)OC(F)(F)C(F)(F)OC(F)(F)C(F)(F)C(F)(F)C(F)(F)F [Perfluoro-3,6,9-trioxatridecanoic acid]; settings: 2200 nM; in DMSO
Procedure: as §1

[10] = compound: OCC(F)(F)C(F)(F)C(F)(F)C(F)(F)C(F)(F)C(F)(F)C(F)(F)C(F)(F)CO [1H,1H,10H,10H-Perfluorodecane-1,10-diol]; settings: 2200 nM; in DMSO
Procedure: as §1

SAg:CXCL8/IL-8
level (log10) (Perfluorooctanoic acid): 0.047 ± 0.048 | level (log10) (Perfluorodecanoic acid; 2200 nM): 0.033 ± 0.0085 | level (log10) (Perfluorodecanoic acid; 6700 nM): -0.0325 ± 0.03 | level (log10) (Perfluorodecanoic acid; 20000 nM): -0.064 ± 0.038 | level (log10) [1]: 0.021 ± 0.014 | level (log10) [2]: 0.033 ± 0.079 | level (log10) [3]: 0.0415 ± 0.057 | level (log10) [4]: -0.0165 ± 0.028 | level (log10) [5]: 0.0085 ± 0.04 | level (log10) [6]: -0.0285 ± 0.022 | level (log10) (Perfluorooctanamidine; 2200 nM): 0.0055 ± 0.023 | level (log10) (Perfluorooctanamidine; 6700 nM): 0.005 ± 0.018 | level (log10) (Perfluorooctanamidine; 20000 nM): 0.023 ± 0.0085 | level (log10) (Perfluorooctanamidine; 60000 nM): -0.022 | level (log10) [7]: 0.048 ± 0.058 | level (log10) ([8]; 740 nM): 0.0055 ± 0.087 | level (log10) ([8]; 2200 nM): 0.0085 ± 0.011 | level (log10) (Perfluorononanoic acid): 0.033 ± 0.042 | level (log10) [9]: -0.0235 ± 0.032 | level (log10) [10]: 0.0185 ± 0.043

CASM3C:Serum Amyloid A
level (log10) (Perfluorooctanoic acid): 0.0085 ± 0.0064 | level (log10) (Perfluorodecanoic acid; 2200 nM): 0.019 ± 0.0042 | level (log10) (Perfluorodecanoic acid; 6700 nM): 0.035 ± 0.031 | level (log10) (Perfluorodecanoic acid; 20000 nM): 0.0345 ± 0.026 | level (log10) [1]: 0 ± 0.0099 | level (log10) [2]: -0.0105 ± 0.0035 | level (log10) [3]: -0.0475 ± 0.011 | level (log10) [4]: -0.069 ± 0.025 | level (log10) [5]: 0.0275 ± 0.035 | level (log10) [6]: 0.039 ± 0.017 | level (log10) (Perfluorooctanamidine; 2200 nM): 0.0365 ± 0.046 | level (log10) (Perfluorooctanamidine; 6700 nM): 0.001 ± 0.0014 | level (log10) (Perfluorooctanamidine; 20000 nM): -0.0085 ± 0.018 | level (log10) (Perfluorooctanamidine; 60000 nM): 0.053 | level (log10) [7]: 0.0275 ± 0.037 | level (log10) ([8]; 740 nM): 0.0255 ± 0.026 | level (log10) ([8]; 2200 nM): -0.0025 ± 0.019 | level (log10) (Perfluorononanoic acid): 0.0045 ± 0.054 | level (log10) [9]: -0.015 ± 0.0014 | level (log10) [10]: 0.0005 ± 0.0035

MyoF:bFGF
level (log10) (Perfluorooctanoic acid): -0.0045 ± 0.0021 | level (log10) (Perfluorodecanoic acid; 2200 nM): 0.0015 ± 0.013 | level (log10) (Perfluorodecanoic acid; 6700 nM): 0.001 ± 0.0042 | level (log10) (Perfluorodecanoic acid; 20000 nM): 0.0055 ± 0.0035 | level (log10) [1]: 0.0055 ± 0.011 | level (log10) [2]: -0.009 ± 0.0071 | level (log10) [3]: 0.0015 ± 0.064 | level (log10) [4]: -0.007 | level (log10) [5]: 0.008 ± 0.013 | level (log10) [6]: 0.01 ± 0.013 | level (log10) (Perfluorooctanamidine; 2200 nM): 0.003 ± 0.0085 | level (log10) (Perfluorooctanamidine; 6700 nM): -0.0085 ± 0.032 | level (log10) (Perfluorooctanamidine; 20000 nM): -0.0115 ± 0.03 | level (log10) (Perfluorooctanamidine; 60000 nM): 0.044 | level (log10) [7]: 0.0065 ± 0.022 | level (log10) ([8]; 740 nM): 0.0065 ± 0.0092 | level (log10) ([8]; 2200 nM): 0.0195 ± 0.025 | level (log10) (Perfluorononanoic acid): -0.0155 ± 0.022 | level (log10) [9]: -0.003 ± 0.011 | level (log10) [10]: 0.0025 ± 0.0092

SAg:CD40
level (log10) (Perfluorooctanoic acid): 0.003 ± 0.017 | level (log10) (Perfluorodecanoic acid; 2200 nM): -0.0015 ± 0.012 | level (log10) (Perfluorodecanoic acid; 6700 nM): -0.0095 ± 0.021 | level (log10) (Perfluorodecanoic acid; 20000 nM): -0.0305 ± 0.012 | level (log10) [1]: 0.0005 ± 0.00071 | level (log10) [2]: -0.013 ± 0.0085 | level (log10) [3]: -0.0565 ± 0.035 | level (log10) [4]: -0.0255 ± 0.047 | level (log10) [5]: -0.004 ± 0.016 | level (log10) [6]: -0.0355 ± 0.0021 | level (log10) (Perfluorooctanamidine; 2200 nM): -0.021 ± 0.018 | level (log10) (Perfluorooctanamidine; 6700 nM): -0.0055 ± 0.0021 | level (log10) (Perfluorooctanamidine; 20000 nM): 0.014 ± 0.023 | level (log10) (Perfluorooctanamidine; 60000 nM): -0.093 | level (log10) [7]: -0.0555 ± 0.067 | level (log10) ([8]; 740 nM): -0.0245 ± 0.05 | level (log10) ([8]; 2200 nM): 0.0185 ± 0.0021 | level (log10) (Perfluorononanoic acid): -0.0685 ± 0.036 | level (log10) [9]: -0.0135 ± 0.025 | level (log10) [10]: -0.0245 ± 0.019

BF4T:CCL2/MCP-1
level (log10) (Perfluorooctanoic acid): 0.004 ± 0.031 | level (log10) (Perfluorodecanoic acid; 2200 nM): 0.023 ± 0.031 | level (log10) (Perfluorodecanoic acid; 6700 nM): -0.043 ± 0.03 | level (log10) (Perfluorodecanoic acid; 20000 nM): -0.484 ± 0.11 | level (log10) [1]: 0.021 ± 0.018 | level (log10) [2]: -0.011 ± 0.013 | level (log10) [3]: -0.033 ± 0.02 | level (log10) [4]: 0.0095 ± 0.005 | level (log10) [5]: -0.001 ± 0.037 | level (log10) [6]: -0.032 ± 0.03 | level (log10) (Perfluorooctanamidine; 2200 nM): 0.032 ± 0.041 | level (log10) (Perfluorooctanamidine; 6700 nM): 0.031 ± 0.0099 | level (log10) (Perfluorooctanamidine; 20000 nM): 0.025 ± 0.045 | level (log10) (Perfluorooctanamidine; 60000 nM): 0.06 | level (log10) [7]: 0.023 ± 0.0014 | level (log10) ([8]; 740 nM): -0.0115 ± 0.019 | level (log10) ([8]; 2200 nM): 0.0025 ± 0.026 | level (log10) (Perfluorononanoic acid): -0.012 ± 0.037 | level (log10) [9]: 0.0175 ± 0.023 | level (log10) [10]: 0.011 ± 0.038

SAg:PBMC Cytotoxicity
level (log10) (Perfluorooctanoic acid): 0.01 ± 0.024 | level (log10) (Perfluorodecanoic acid; 2200 nM): 0.0485 ± 0.0035 | level (log10) (Perfluorodecanoic acid; 6700 nM): 0.032 ± 0.0028 | level (log10) (Perfluorodecanoic acid; 20000 nM): 0.0625 ± 0.061 | level (log10) [1]: 0.004 ± 0.062 | level (log10) [2]: -0.0035 ± 0.073 | level (log10) [3]: 0.0135 ± 0.054 | level (log10) [4]: -0.012 ± 0.025 | level (log10) [5]: -0.0045 ± 0.054 | level (log10) [6]: 0.001 ± 0.023 | level (log10) (Perfluorooctanamidine; 2200 nM): 0.0425 ± 0.057 | level (log10) (Perfluorooctanamidine; 6700 nM): 0.011 ± 0.021 | level (log10) (Perfluorooctanamidine; 20000 nM): 0.003 ± 0.016 | level (log10) (Perfluorooctanamidine; 60000 nM): -0.263 | level (log10) [7]: 0.004 ± 0.037 | level (log10) ([8]; 740 nM): 0.009 ± 0.0014 | level (log10) ([8]; 2200 nM): -0.005 ± 0.024 | level (log10) (Perfluorononanoic acid): 0.002 ± 0.044 | level (log10) [9]: 0.0005 ± 0.011 | level (log10) [10]: 0.0015 ± 0.015
